Source: patent publication US12306171B2, “Method for detecting indicator of immune-related disease” (MANDOM CORPORATION, priority 2018, dated 2025)
At least one compound was matched to its structure with a doubt left.

How the values were obtained:
[1] = test system: adhesive cell in peripheral blood mononuclear cells collected from an asthmatic patient; assay: Morphology and adhesive cells of peripheral blood mononuclear cells from an asthmatic patient after culture in steroid-containing medium; assay type: cell-based, human; details: 10 μM steroid, 0.1 v/v % DMSO, 10 v/v % FBS RPMI1640, 37° C., 24 hours; asthmatic patient PBMC; FIG. 10
Experimental: Using 10 mL of peripheral blood collected from an asthmatic patient and 15 mL of a human lymphocyte-separation medium (manufactured by GE Healthcare, trade name: Ficoll-Paque PLUS), peripheral blood mononuclear cells were separated from the peripheral blood, according to a density gradient centrifugation method. Some of the separated peripheral blood mononuclear cells were cultured in a steroid-containing medium (RPMI1640 medium containing 10 μM hydrocortisone or 10 μM dexamethasone, 0.1 v/v % DMSO and 10 v/v % FBS) or a control medium (RPMI1640 medium containing 0.1 v/v % DMSO and 10 v/v % FBS) in a culture vessel at 37° C. for 24 hours. The morphology and state of the obtained cell were observed by an inverted phase contrast microscope (manufactured by Leica Microsystems, trade name: DM IL LED). […]

[2] = test system: primary cilium of immune cell (peripheral blood mononuclear cells from an asthmatic patient); assay: Formation rate of primary cilium in immune cell after culture in steroid-containing medium; assay type: cell-based, human; details: 10 μM steroid, 37° C., 24 hours; nonadherent cells from asthmatic patient PBMC; FIG. 11
Experimental: Using 10 mL of peripheral blood collected from an asthmatic patient and 15 mL of a human lymphocyte-separation medium (manufactured by GE Healthcare, trade name: Ficoll-Paque PLUS), peripheral blood mononuclear cells were separated from the peripheral blood, according to a density gradient centrifugation method. Some of the separated peripheral blood mononuclear cells were fixed with 4 v/v % PFA-containing PBS solution. The fixed cells were blocked and permeabilized by incubating the cells in a blocking/permeabilizing agent, to give a sample containing uncultured cells.
Some of the separated peripheral blood mononuclear cells were cultured in a steroid-containing medium (RPMI1640 medium containing 10 μM hydrocortisone or 10 μM dexamethasone, 0.1 v/v % DMSO and 10 v/v % FBS) at 37° C. for 24 hours. Then, nonadherent cells suspended in each medium were collected. Immediately after collection, each of the collected cells was fixed with 4 v/v % PFA-containing PBS solution. […]
Next, the total number of immune cells and the number of primary cilia in an immune cell were obtained by using observations of cells contained in each sample. Then, the formation rate of a primary cilium in an immune cell was calculated in accordance with the formula (Ic): [Formation rate of primary cilium in immune cell]=[(Number of primary cilia in immune cell)/(Total number of immune cells)]×100 (Ic). […]

Question: Which “presence of adhesive cell after culture (morphology, phase contrast microscope)” value [1] does the source give for `C[C@@H]1C[C@H]2[C@@H]3CCC4=CC(=O)C=C[C@]4(C)[C@@]3(F)[C@@H](O)C[C@]2(C)[C@@]1(O)C(=O)CO` [dexamethasone] here?
Answer: The value was “the adhesive cell disappears”.

Question: What about the “formation rate of a primary cilium of the immune cell in the nonadherent cell, versus control medium” value [2] of the same compound?
Answer: Its value is “significantly lower”.
